Test results published in patent US20180086841A1.

Experiments:
[1] = biological target: HsCD27 (D249H); test: flow cytometry on transiently transfected CHO-K1 cells
[2] = biological target: MmCD27 (H258D); test: as above

B1: hCD27.15-c4 (antibody, human IgG4 S228P, kappa, V domains shown)
VH: EVRLQQSGADLVKPGASVKLSCTASGFIIKATYMHWVRQRPEQGLEWIGRIDPANGETKYDPKFQVKATITADTSSSTAYLQLNSLTSDDTAVYYCARYAWYFDVWGAGTTVTVSS
VL: DIQMTQSPASLSASVGDTVTITCRASENIYSFLAWYHQKQGRSPQLLVYHAKTLAEGVPSRFSGSGSGTQFSLKINSLQAEDFGSYYCQHYYGSPLTFGAGTKLEVKR
Question: Which results are given for B1?
Answer: binding [1]: no binding; binding [2]: binds

No constants are given. Whether binding was seen depends on the method and setting. For some assays here: Binding can be weak; no strength is given.
